Among the data in PMC6499106, “The CXCR4-LASP1-eIF4F Axis Promotes Translation of Oncogenic Proteins in Triple-Negative Breast Cancer Cells” (Frontiers in Oncology, 2019) are binding values, retold here.

Amino acid sequences for entries named in this document (tags omitted).
UniProt P60842: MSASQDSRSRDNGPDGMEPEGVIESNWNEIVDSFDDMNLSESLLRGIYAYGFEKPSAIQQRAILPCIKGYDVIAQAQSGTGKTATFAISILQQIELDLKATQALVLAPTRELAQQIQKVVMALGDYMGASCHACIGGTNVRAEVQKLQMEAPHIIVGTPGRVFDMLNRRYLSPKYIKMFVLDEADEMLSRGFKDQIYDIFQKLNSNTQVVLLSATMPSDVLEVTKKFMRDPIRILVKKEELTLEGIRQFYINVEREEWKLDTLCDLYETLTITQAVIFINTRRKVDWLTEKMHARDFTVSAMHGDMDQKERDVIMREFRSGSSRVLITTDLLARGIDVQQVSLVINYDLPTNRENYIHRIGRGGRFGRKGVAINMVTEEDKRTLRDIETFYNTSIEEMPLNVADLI
UniProt P23588: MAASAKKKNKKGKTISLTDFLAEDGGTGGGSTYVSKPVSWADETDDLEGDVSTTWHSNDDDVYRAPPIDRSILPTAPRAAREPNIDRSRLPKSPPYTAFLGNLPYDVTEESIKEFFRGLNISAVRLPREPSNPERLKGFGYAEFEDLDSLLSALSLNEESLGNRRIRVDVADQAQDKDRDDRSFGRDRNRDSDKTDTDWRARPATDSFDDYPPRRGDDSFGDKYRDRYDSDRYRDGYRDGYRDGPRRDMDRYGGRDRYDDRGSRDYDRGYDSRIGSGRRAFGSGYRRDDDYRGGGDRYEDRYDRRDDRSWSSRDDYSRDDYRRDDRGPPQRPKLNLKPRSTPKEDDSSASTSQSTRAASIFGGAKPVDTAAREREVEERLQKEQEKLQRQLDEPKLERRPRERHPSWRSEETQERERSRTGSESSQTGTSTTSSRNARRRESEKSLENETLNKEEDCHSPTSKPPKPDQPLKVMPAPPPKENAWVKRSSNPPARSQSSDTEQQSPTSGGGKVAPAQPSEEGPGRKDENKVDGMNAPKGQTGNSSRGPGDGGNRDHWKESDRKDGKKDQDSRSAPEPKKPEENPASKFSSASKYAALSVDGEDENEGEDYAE

Results are given in words; binding and its absence hold for the method and conditions named. For some assays here: Binding seen in cells or lysates may run through a third protein. Some results given as binding are weak or reduced against the parent protein; the word gives no strength. For some assays here: Where a sequence is shown, tags or fusion partners need not be part of it.

Test [1] addresses T1, GST-LASP1 (human) (UniProt Q14847).
T1 sequence: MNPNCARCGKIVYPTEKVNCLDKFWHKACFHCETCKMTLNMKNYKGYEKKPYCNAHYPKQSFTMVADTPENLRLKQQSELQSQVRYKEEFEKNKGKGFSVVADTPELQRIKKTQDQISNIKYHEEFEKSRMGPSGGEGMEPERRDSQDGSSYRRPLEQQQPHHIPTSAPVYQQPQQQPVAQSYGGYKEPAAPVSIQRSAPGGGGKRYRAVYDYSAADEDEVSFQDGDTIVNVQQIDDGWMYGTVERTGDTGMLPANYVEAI
In words: pull-down; 1.5 nmoles GST-LASP1 on glutathione agarose beads with 1 mg 231S lysate in Co-IP buffer, 2 h at 4°C; for eIF4A with or without exogenous 2 mM ATP and 3 mM MgCl2; Western blot; only the target purified. (In western blotting, separated proteins are transferred to a membrane and probed.)

Test [2] deals with T1, GST-LASP1 (human). In words: pull-down; 1.5 nmoles GST-LASP1 on glutathione beads in 1 mL Co-IP buffer with increasing amounts of purified recombinant eIF4A or eIF4B, overnight at 4°C; Western blot; both purified.
Test [3] has as its target T1, GST-LASP1 (human). In words: pull-down; GST-LASP1 eluted from the beads, mixed in solution in equimolar amounts with purified eIF4A or eIF4B in 1 mL Co-IP buffer overnight at 4°C, complexes re-captured with glutathione agarose beads for 1 h at 4°C; Western blot; both purified.
Test [4] addresses Eukaryotic initiation factor 4A (eIF4A1), endogenous in 231S cells (human (endogenous in 231S, MDA-MB-231)) (UniProt P60842). In words: co-IP; endogenous proteins from 1 mg 231S lysate, cells serum-starved 1 h and stimulated with 10-20 nM CXCL12 over time; IP with eIF4A1, eIF4B or LASP1 antibody on protein G magnetic beads, 2 h at 4°C; Co-IP buffer (50 mM Tris pH 8.0, 100 mM NaCl, 0.1% IGEPAL CA-630, 0.1% deoxycholate, 5 mM EDTA); Western blot.

Test [5] addresses Eukaryotic initiation factor 4B (eIF4B), endogenous in 231S cells (human (endogenous in 231S, MDA-MB-231)) (UniProt P23588). Described as above.

As for “Eukaryotic initiation factor 4A (eIF4A1), endogenous in 231S cells (from UniProt P60842 1-406)”, in test [1], the binding entry is listed as “binds”.

Regarding “Purified recombinant eIF4A (from UniProt P60842 1-406)”, the binding result in test [2] and in test [3] was “binds” each time.

B1: LIM and SH3 Protein 1 (LASP1), endogenous in 231S cells (natural protein, human (endogenous in 231S, MDA-MB-231), UniProt Q14847 1-261, looked up)
chain: MNPNCARCGKIVYPTEKVNCLDKFWHKACFHCETCKMTLNMKNYKGYEKKPYCNAHYPKQSFTMVADTPENLRLKQQSELQSQVRYKEEFEKNKGKGFSVVADTPELQRIKKTQDQISNIKYHEEFEKSRMGPSGGEGMEPERRDSQDGSSYRRPLEQQQPHHIPTSAPVYQQPQQQPVAQSYGGYKEPAAPVSIQRSAPGGGGKRYRAVYDYSAADEDEVSFQDGDTIVNVQQIDDGWMYGTVERTGDTGMLPANYVEAI
notes: LIM and SH3 protein 1 (LASP1), endogenous in human 231S breast cancer cells; source: endogenous, 231S (MDA-MB-231 sorted for high CXCR4) cells, in lysate or in situ
Consider B1, for which the binding entry in test [4] and in test [5] was “binds” each time.
